Not every detail of the peptide structures is certain; ends, links or a residue may be inferred. Residues, ends and D or L forms follow the SMILES beside them.
Legend:
[1] = molecular target: T1, SNARE complex (SNAP-25 and syntaxin 1A) (Homo sapiens, UniProt Q16623); type: cell-based
T1 construct: a SNARE complex being formed in the cells; endogenous in cells; host or cells: SH-SY5Y

Amino acid sequences for entries named in this document (tags omitted).
UniProt Q16623, whole entry, looked up: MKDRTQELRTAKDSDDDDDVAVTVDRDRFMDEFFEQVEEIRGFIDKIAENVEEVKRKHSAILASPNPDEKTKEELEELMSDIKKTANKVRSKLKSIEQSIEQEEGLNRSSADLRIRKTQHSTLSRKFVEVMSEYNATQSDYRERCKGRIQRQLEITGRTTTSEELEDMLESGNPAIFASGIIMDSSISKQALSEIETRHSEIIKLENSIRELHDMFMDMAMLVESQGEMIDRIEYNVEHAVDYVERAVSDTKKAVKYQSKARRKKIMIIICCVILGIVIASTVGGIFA

collagen = assay: Expression level of collagen in skin tissue (Masson's Trichrome staining); type: in vivo, mouse; settings: liposome solution including 4,000 ppm peptide, twice a day, 12 weeks, vs liposome solution only
hair-less mouse [2] = assay: Inhibitory effect on sebum production: number of sebaceous glands; type: in vivo; settings: liposome solution including 4,000 ppm peptide, twice a day, 12 weeks, vs liposome solution only
[3] = molecular target: T2, recombinant syntaxin 1A protein (Homo sapiens, UniProt Q16623); assay: Decomposition degree of recombinant syntaxin 1A (Western blotting); type: biochemical; settings: 20, 100, 200 μM peptide, 4 hours, 37° C., compared to negative control; concentration-dependent
T2 construct: purchased Novus biologicals, USA

fatty acid synthase = assay: Inhibitory effect on sebum production: fatty acid synthase immunohistochemical staining; type: in vivo, mouse; settings: liposome solution including 4,000 ppm peptide, twice a day, 12 weeks, vs liposome solution only
C57BL/6 mice [4] = assay: Relaxation of mouse toe muscle, digit abduction scoring (DAS) assay; type: in vivo; settings: 100 μg into calf muscle, scores 0 to 4
SNARE complex = molecular target: T3, SNARE complex (Homo sapiens, UniProt Q16623); type: cell-based
T3 construct: a SNARE complex being formed in the cells; endogenous in cells; host or cells: SH-SY5Y

elastin = assay: Expression level of elastin in skin tissue (immunohistochemical staining); type: in vivo, mouse; settings: liposome solution including 4,000 ppm peptide, twice a day, 12 weeks, vs liposome solution only
C57BL/6 mice [5] = settings: mouse, in vivo
endogenous syntaxin 1A = molecular target: T4, endogenous syntaxin 1A (Homo sapiens, UniProt Q16623); type: biochemical
T4 construct: treated with 30 μg of a SH-SY5Y cell lysate; endogenous in cells; host or cells: SH-SY5Y cell lysate

fibronectin = assay: Expression level of fibronectin in skin tissue (immunohistochemical staining); type: in vivo, mouse; settings: liposome solution including 4,000 ppm peptide, twice a day, 12 weeks, vs liposome solution only
hair-less mouse [6] = assay: Wrinkle-reducing effect in hair-less mouse; type: in vivo; settings: liposome solution including 4,000 ppm peptide, twice a day, 12 weeks, vs liposome solution only
SH-SY5Y cells = type: cell-based, Human
[7] = - Heat stability (121℃/15min)

Row | Compound | amount of the syntaxin 1A precipitated by the SNAP-25 antibody [1] | interaction between the SNAP-25 and the syntaxin 1A [1] | expression level of collagen (collagen) | number of sebaceous glands (hair-less mouse [2]) | band of the recombinant syntaxin 1A protein [3] | expression level of the sebum production-related marker (fatty acid synthase) (fatty acid synthase) | DAS score (C57BL/6 mice [4]; after 3 hours of injection) | DAS score (C57BL/6 mice [4]; after 17 hours of injection) | formation of the SNARE complex (75 kDa band) (SNARE complex) | expression level of elastin (elastin) | muscle relaxation effect (DAS) compared to 0.6 units BoNT-A (C57BL/6 mice [5]) | muscle relaxation effect (DAS) compared to the non-administered group (C57BL/6 mice [5]) | band of syntaxin 1A protein in SH-SY5Y cell lysate (endogenous syntaxin 1A) | expression level of fibronectin (fibronectin) | wrinkles (naked eye and microscope) (hair-less mouse [6]) | content of acetylcholine secreted into the medium (SH-SY5Y cells) | inhibitory effect on the acetylcholine secretion compared to the positive control (50 nM tetanus) (SH-SY5Y cells) | Related % [7]
1 | CC[C@H](C)[C@H](NC(=O)[C@H](CC(C)C)NC(=O)[C@H](Cc1ccccc1)NC(=O)[C@@H](N)CCCCN)C(=O)N[C@@H](CCCCN)C(=O)O [peptide of the present invention, KFLIK] (H-KFLIK-OH; N-terminus and C-terminus assumed) | reduced | inhibited | increased | reduced | reduced | lowered | increases the DAS scores | 4 | inhibited | increased | effect similar to the BoNT-A | superior muscle relaxation effect | reduced | increased | significantly reduced | reduced the content of acetylcholine in a concentration-dependent manner | excellent inhibitory effect | –
2 | CC[C@H](C)[C@H](NC(=O)[C@H](CC(C)C)NC(=O)[C@H](Cc1ccccc1)NC(=O)[C@@H](N)CCCCN)C(=O)N[C@@H](CCCCN)C(=O)O (H-KFLIK-OH) | – | – | – | – | – | – | – | – | – | – | – | – | – | – | – | – | – | 100%

Source: patent publication US11306121B2, “Composition for muscle relaxation” (CAREGEN CO., LTD., priority 2018, dated 2022)
